Among the data in the supplement of paper PMC6411743 are NP40-soluble protein abundance values, retold here.

By UniProt entry, the sequences of proteins in these tests, tags left out.
UniProt P34972, whole entry: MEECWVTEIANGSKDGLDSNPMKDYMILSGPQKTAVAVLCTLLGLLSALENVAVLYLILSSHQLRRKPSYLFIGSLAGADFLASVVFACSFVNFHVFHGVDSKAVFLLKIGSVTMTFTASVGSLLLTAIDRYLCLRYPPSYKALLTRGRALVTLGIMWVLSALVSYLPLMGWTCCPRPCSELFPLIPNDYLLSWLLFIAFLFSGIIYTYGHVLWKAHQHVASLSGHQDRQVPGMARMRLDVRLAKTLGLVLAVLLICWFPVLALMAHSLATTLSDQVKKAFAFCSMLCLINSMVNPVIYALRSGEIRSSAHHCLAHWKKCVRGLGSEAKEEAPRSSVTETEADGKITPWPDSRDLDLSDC

Structures are written as SMILES. ± gives the standard deviation of the averaged measurements. Only a part is listed here, and it is no random draw.

The assay addresses CB2 (UniProt P34972). The assay is described as follows: NP40-soluble protein abundance relative to vehicle (solubility fold change) (ratio); higher = more soluble protein in presence of ATP. A digest of the protocol: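 In three independent experiments, Jurkat crude lysate made by Dounce homogenisation was treated for 10 min at room temperature and then 3 min at 37 °C with eight concentrations ranging from 0.1 to 10 mM. It was then solubilised with 0.8% NP40 plus benzonase for 60 min at 4 °C and ultracentrifuged. The supernatant was TMT-labelled for LC-MS/MS, and each value is the fold change against the detergent-processed vehicle for the same replicate, using vsn-normalised intensities.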

On to `Nc1ncnc2c1ncn2[C@@H]1O[C@H](COP(=O)(O)OP(=O)(O)OP(=O)(O)O)[C@@H](O)[C@H]1O` [adenosine triphosphate], for which the NP40-soluble protein abundance by setting is: (concentration: 1mM) 0.964 ± 0.057; (concentration: 2mM) 0.969 ± 0.031; (concentration: 4mM) 0.946 ± 0.099; (concentration: 6mM) 1.03 ± 0.11; (concentration: 8mM) 0.937 ± 0.065; (concentration: 10mM) 0.908 ± 0.084.
